Here are results for 2 molecules from publication PMC7661466.

Amino acid sequences for entries named in this document (tags omitted).
UniProt Q9Y572: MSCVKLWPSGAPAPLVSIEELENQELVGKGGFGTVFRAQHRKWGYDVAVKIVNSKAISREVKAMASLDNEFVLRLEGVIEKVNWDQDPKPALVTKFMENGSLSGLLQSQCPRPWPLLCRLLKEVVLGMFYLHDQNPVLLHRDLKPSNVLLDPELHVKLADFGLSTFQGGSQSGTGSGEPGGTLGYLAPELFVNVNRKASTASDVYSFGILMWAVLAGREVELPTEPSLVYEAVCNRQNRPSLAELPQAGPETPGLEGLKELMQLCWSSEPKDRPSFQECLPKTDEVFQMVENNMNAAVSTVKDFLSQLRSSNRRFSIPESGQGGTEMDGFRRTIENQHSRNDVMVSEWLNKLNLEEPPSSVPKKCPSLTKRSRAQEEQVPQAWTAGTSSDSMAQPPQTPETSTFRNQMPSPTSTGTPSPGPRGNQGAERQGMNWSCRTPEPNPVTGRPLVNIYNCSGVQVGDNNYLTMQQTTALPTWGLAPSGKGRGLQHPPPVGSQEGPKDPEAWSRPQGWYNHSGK
UniProt Q13546: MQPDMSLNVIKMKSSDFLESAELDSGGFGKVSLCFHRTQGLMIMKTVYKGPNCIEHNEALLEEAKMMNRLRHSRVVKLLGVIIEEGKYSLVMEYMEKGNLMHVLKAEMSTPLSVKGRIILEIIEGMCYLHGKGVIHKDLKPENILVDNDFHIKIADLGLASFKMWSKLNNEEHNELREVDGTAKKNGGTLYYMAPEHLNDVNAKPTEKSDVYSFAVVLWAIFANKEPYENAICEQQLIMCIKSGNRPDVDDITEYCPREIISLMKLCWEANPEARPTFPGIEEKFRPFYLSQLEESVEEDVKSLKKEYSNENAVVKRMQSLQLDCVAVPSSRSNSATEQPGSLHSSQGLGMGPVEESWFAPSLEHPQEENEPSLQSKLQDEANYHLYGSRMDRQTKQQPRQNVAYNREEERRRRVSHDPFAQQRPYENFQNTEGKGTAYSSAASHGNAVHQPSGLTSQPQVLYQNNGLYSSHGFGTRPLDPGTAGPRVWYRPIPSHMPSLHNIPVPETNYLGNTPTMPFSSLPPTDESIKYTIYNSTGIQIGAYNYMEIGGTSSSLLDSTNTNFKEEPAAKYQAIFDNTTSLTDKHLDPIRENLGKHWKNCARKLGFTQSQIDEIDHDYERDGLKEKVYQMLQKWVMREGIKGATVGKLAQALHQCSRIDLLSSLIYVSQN

Assay [1] has as its target T1, Myc-tagged ICP6 (HSV-1), wild type (herpes simplex virus type 1 (HSV-1)) (UniProt P08543).
T1 sequence: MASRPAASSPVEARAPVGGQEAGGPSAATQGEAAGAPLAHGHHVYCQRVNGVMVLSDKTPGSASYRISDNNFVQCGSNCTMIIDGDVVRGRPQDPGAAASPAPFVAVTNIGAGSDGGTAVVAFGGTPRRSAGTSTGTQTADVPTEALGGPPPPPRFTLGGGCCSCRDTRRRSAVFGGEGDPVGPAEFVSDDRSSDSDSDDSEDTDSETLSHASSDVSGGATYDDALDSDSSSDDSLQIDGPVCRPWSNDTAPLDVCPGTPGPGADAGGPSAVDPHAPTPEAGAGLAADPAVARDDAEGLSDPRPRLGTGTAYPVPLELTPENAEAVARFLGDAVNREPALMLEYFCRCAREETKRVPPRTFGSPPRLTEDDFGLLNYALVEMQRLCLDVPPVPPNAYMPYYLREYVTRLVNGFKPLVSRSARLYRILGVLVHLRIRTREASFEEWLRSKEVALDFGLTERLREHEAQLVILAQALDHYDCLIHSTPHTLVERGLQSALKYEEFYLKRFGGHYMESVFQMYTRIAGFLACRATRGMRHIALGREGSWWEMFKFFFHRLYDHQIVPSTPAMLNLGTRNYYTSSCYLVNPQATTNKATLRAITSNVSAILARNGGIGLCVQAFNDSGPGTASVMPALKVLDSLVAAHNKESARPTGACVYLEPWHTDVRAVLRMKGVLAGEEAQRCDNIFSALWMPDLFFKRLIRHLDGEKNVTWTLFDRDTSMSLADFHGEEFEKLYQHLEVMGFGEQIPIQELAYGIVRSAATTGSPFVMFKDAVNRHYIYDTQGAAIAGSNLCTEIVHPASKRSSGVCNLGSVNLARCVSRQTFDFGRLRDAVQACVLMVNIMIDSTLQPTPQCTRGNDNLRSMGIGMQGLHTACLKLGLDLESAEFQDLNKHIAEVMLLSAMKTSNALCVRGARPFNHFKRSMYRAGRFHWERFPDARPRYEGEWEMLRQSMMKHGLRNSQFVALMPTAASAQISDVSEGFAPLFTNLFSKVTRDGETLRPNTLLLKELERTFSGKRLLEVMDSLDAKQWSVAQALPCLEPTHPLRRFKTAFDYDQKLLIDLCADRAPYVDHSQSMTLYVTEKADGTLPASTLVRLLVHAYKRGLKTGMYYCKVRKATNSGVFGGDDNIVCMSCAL
Put plainly: co-IP.

Assay [2] has as its target Flag-tagged RIP3 (receptor-interacting protein kinase 3) (human) (UniProt Q9Y572). Description: co-IP.

Results are given in words; binding and its absence hold for the method and conditions named. Binding seen in cells or lysates may run through a third protein. Some binding calls cover weakened binding; strength is not graded here. For part of these data: Sequences can lack the tags named with a protein.

Consider “receptor-interacting protein kinase 1 (RIP1) (from UniProt Q13546 1-671)”, for which the binding result in assay [1] and in assay [2] was “binds” in each case.

B1: ICP6 (HSV-1), wild type, expressed by lentivirus in HeLa-RIP3 cells (protein, UniProt P08543 1-1137)
chain: T1 sequence
For the molecule B1, the binding result in assay [2] is “binds”.
